Data published in PMC8630662.

What was measured:
[1] = target: in situ tagged TbPgs-HA (T. brucei phosphatidylglycerophosphate synthase) (Trypanosoma brucei) (UniProt Q582B0); test: co-IP; lysate of T. brucei procyclic forms co-expressing the two in situ tagged proteins (10 mM Tris-HCl pH 7.4, 150 mM NaCl, 1 mM EDTA, 1% Triton X-100, 0.5% NP-40); anti-HA or anti-Myc antibody or beads alone, Protein G Dynabeads, 4°C; SDS-PAGE and immunoblot
[2] = target: in situ tagged TbSlp2-Myc (Trypanosoma brucei) (UniProt Q57VW1); test: as above

Q: Which binding [1] does the source give for “in situ tagged TbSlp2-Myc (from UniProt Q57VW1)” here?
A: binds

Q: With “in situ tagged TbPgs-HA (T. brucei phosphatidylglycerophosphate synthase) (from UniProt Q582B0) (enzyme)” as the substance, how does the binding [2] read?
A: binds

Results are given in words; binding and its absence hold for the method and conditions named. Binding seen in cells or lysates may run through a third protein. Binding calls can cover weak binding; strength is not graded here.
